From publication PMC10011557

Key:
Myc-AMPK = assay: co-IP; Flag-SAPS3 and Myc-AMPK co-expressed in 293T; lysates immunoprecipitated with anti-Myc or anti-Flag beads, Western blotting
[1] = target: His-AMPK (recombinant, unphosphorylated); assay: pull-down; 3 μg of each recombinant protein mixed, 37 °C 1 h in 25 mM Tris pH 8.0, 150 mM NaCl, 2 mM DTT, 1 mg/ml BSA; His-AMPK or His-pAMPK held on nickel affinity beads, Western blotting; both purified
Flag-tagged AMPKα2 [2] = assay: co-IP; Flag-AMPK overexpressed in 293T; glucose deprivation or addback 1 h; anti-Flag beads, Western blotting for endogenous SAPS3 and PP6C
Flag-tagged AMPKα2 [3] = assay: condition: only glucose addback for 3 h after glucose deprivation; co-IP; Flag-AMPK overexpressed in 293T; glucose deprivation followed by glucose addback for 3 h; anti-Flag beads, Western blotting

binding (Myc-AMPK): binds
B1: Flag-SAPS3 (protein, UniProt Q5H9R7 1-873)
chain: MFWKFDLHSSSHIDTLLEREDVTLKELMDEEDVLQECKAQNRKLIEFLLKAECLEDLVSFIIEEPPQDMDEKIRYKYPNISCELLTSDVSQMNDRLGEDESLLMKLYSFLLNDSPLNPLLASFFSKVLSILISRKPEQIVDFLKKKHDFVDLIIKHIGTSAIMDLLLRLLTCIEPPQPRQDVLNWLNEEKIIQRLVEIVHPSQEEDRHSNASQSLCEIVRLSRDQMLQIQNSTEPDPLLATLEKQEIIEQLLSNIFHKEKNESAIVSAIQILLTLLETRRPTFEGHIEICPPGMSHSACSVNKSVLEAIRGRLGSFHELLLEPPKKSVMKTTWGVLDPPVGNTRLNVIRLISSLLQTNTSSINGDLMELNSIGVILNMFFKYTWNNFLHTQVEICIALILASPFENTENATITDQDSTGDNLLLKHLFQKCQLIERILEAWEMNEKKQAEGGRRHGYMGHLTRIANCIVHSTDKGPNSALVQQLIKDLPDEVRERWETFCTSSLGETNKRNTVDLVTTCHIHSSSDDEIDFKETGFSQDSSLQQAFSDYQMQQMTSNFIDQFGFNDEKFADQDDIGNVSFDRVSDINFTLNTNESGNIALFEACCKERIQQFDDGGSDEEDIWEEKHIAFTPESQRRSSSGSTDSEESTDSEEEDGAKQDLFEPSSANTEDKMEVDLSEPPNWSANFDVPMETTHGAPLDSVGSDVWSTEEPMPTKETGWASFSEFTSSLSTKDSLRSNSPVEMETSTEPMDPLTPSAAALAVQPEAAGSVAMEASSDGEEDAESTDKVTETVMNGGMKETLSLTVDAKTETAVFKSEEGKLSTSQDAACKDAEECPETAEAKCAAPRPPSSSPEQRTGQPSAPGDTSVNGPV

binding [1]: binds
B2: recombinant Myc-PPP6R3 protein (protein, UniProt Q5H9R7 1-873)
chain: B1 chain

binding (Flag-tagged AMPKα2 [2]): binds | binding (Flag-tagged AMPKα2 [3]): no binding
B3: serine/threonine-protein phosphatase 6 regulatory subunit 3, SAPS3 (endogenous, 293T) (protein, UniProt Q5H9R7 1-873)
chain: B1 chain

No constants are given. Whether binding was seen depends on the method and setting. For some of these results: A result given as binding can be weak or reduced; the word gives no strength. For some of these results: Tags and fused reporters may be left off the sequences shown. For some of these results: Binding seen in cells or lysates may run through a third protein. One block for each binder: values may come before it.
